One assay has as its target T1, PARG-1::GFP (C. elegans) (UniProt Q867X0).
T1 sequence: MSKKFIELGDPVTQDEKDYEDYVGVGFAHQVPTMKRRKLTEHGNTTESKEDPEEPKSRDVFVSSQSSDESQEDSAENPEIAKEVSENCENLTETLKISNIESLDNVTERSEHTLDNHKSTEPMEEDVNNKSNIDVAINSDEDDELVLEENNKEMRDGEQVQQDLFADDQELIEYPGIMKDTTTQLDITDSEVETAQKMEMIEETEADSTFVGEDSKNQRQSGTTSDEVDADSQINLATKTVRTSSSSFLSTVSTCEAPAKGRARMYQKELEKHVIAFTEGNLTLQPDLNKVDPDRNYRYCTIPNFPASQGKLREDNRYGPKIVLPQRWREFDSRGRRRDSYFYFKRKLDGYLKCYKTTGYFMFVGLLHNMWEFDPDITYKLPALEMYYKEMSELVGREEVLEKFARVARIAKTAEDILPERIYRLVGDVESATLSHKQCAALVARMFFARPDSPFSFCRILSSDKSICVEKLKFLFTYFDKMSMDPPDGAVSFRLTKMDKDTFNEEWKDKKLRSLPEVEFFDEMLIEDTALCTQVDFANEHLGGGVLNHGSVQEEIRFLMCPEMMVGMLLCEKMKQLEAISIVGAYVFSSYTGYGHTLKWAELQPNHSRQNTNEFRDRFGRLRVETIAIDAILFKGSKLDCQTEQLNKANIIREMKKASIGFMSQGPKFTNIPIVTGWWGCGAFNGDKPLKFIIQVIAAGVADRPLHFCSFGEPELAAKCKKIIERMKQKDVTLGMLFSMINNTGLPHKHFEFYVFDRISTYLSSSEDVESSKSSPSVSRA
Nature of the assay: affinity purification with mass spectrometry; IP/MS targeting PARG-1::GFP; details in SI Appendix, Fig. S9.

In the next assay the target is DUO-1::GFP (C. elegans) (UniProt Q7JLI8). Nature of the assay: proximity labelling; GFP nanobody::NLS::TurboID expressed in the germ line, coupled to DUO-1::GFP; biotinylated proteins captured on streptavidin-coated beads and identified by LC-MS/MS; controls duo-1::GFP only and GFPnanobody::NLS::TurboID only; three replicates per condition.

These are yes or no findings as the source states them, for the method shown. Binding seen in cells or lysates may run through a third protein. Here binding means that the protein was enriched with, or labelled near, the bait; the list need not be complete. For some assays here: Where a sequence is shown, tags or fusion partners need not be part of it.

On to “DUO-1 (C. elegans (endogenous in worms)) (enzyme)”, for which, in the assay with PARG-1::GFP (C. elegans), the binding result is “binds”.

B1: Poly(ADP-ribose) Glycohydrolase 1 (PARG-1) (enzyme, UniProt Q867X0 1-781)
chain: T1 sequence
In the case of B1, the binding result with DUO-1::GFP (C. elegans) is on record as “binds”.

Source of the values: article PMC13012089.
